Results deposited as PubChem BioAssay AID1259405 (NCATS, 2018).
This is a random part of about 50,000 deposited reagents. About 4,000 of all reagents (8%) were called active. 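Mouse siRNA library applied to hamster cells; one well for each siRNA.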 Reagents against one gene are numbered here. Reagent sequences are not shown.

Purpose: 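Knock-downs that lift recombinant protein yield in hamster ovary cells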 (primary screen)
Cells: Chinese hamster CHO-K1 ovary cells with stable secreted eGFP expression
Reagent: single siRNA against mouse genes, 0.8 pmol siRNA per well (2 µl of 400 nM stock)
Time to read-out: 3 days
Measurement: 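Per-well intracellular GFP measured by laser scanning cytometry, plus viability from ATP luminescence, each relative to plate median of non-targeting control wells, in %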
Direction: GFP, % of control: higher = more GFP per well, higher productivity; viability (ATP), % of control: higher = more viable cells (more ATP)
Rule for the call: 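Called active when intracellular GFP, relative to negative control, is at or above 120%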

| gene knocked down | reagent no. | GFP, % of control | viability (ATP), % of control | call |
| --- | --- | --- | --- | --- |
| Ccdc83 (coiled-coil domain containing 83) | 1 | 84.2 | 82.8 | inactive |
| Ccdc83 (coiled-coil domain containing 83) | 2 | 56 | 98.6 | inactive |
| Ccdc83 (coiled-coil domain containing 83) | 3 | 89 | 82 | inactive |
| Lpar1 (lysophosphatidic acid receptor 1) | 1 | 82.3 | 105 | inactive |
| Lpar1 (lysophosphatidic acid receptor 1) | 2 | 48.8 | 85.1 | inactive |
| Lpar1 (lysophosphatidic acid receptor 1) | 3 | 65.9 | 62.8 | inactive |
| Kctd8 (potassium channel tetramerisation domain containing 8) | 1 | 94.9 | 107 | inactive |
| Kctd8 (potassium channel tetramerisation domain containing 8) | 2 | 50 | 47.8 | inactive |
| Kctd8 (potassium channel tetramerisation domain containing 8) | 3 | 53.5 | 67.3 | inactive |
| Nfkb1 | 1 | 124 | 103 | active |
| Nfkb1 | 2 | 69.8 | 72.1 | inactive |
| Nfkb1 | 3 | 67.3 | 84 | inactive |
| Cyp2j5 (cytochrome P450, family 2, subfamily j, polypeptide 5) | 1 | 43.7 | 81.9 | inactive |
| Cyp2j5 (cytochrome P450, family 2, subfamily j, polypeptide 5) | 2 | 71 | 85.7 | inactive |
| Cyp2j5 (cytochrome P450, family 2, subfamily j, polypeptide 5) | 3 | 102 | 91.3 | inactive |
| Or7a37 (olfactory receptor family 7 subfamily A member 37) | 1 | 89.2 | 88 | inactive |
| Or7a37 (olfactory receptor family 7 subfamily A member 37) | 2 | 83 | 92.8 | inactive |
| Or7a37 (olfactory receptor family 7 subfamily A member 37) | 3 | 52.6 | 89.5 | inactive |
| Lsm14a (LSM14A mRNA processing body assembly factor) | 1 | 37.3 | 55.7 | inactive |
| Lsm14a (LSM14A mRNA processing body assembly factor) | 2 | 67.6 | 97.4 | inactive |
| Lsm14a (LSM14A mRNA processing body assembly factor) | 3 | 191 | 111 | active |
| Chrnd (cholinergic receptor, nicotinic, delta polypeptide) | 1 | 97.2 | 102 | inactive |
| Chrnd (cholinergic receptor, nicotinic, delta polypeptide) | 2 | 77.8 | 61.6 | inactive |
| Chrnd (cholinergic receptor, nicotinic, delta polypeptide) | 3 | 49.5 | 54.4 | inactive |
| Plec (plectin) | 1 | 80.8 | 31.3 | inactive |
| Plec (plectin) | 2 | 49.6 | 58.1 | inactive |
| Plec (plectin) | 3 | 62.8 | 42.3 | inactive |
| Bpifc (BPI fold containing family C) | 1 | 135 | 121 | active |
| Bpifc (BPI fold containing family C) | 2 | 86.9 | 102 | inactive |
| Bpifc (BPI fold containing family C) | 3 | 37.4 | 61 | inactive |
| Septin10 (septin 10) | 1 | 57.3 | 67.3 | inactive |
| Septin10 (septin 10) | 2 | 144 | 112 | active |
| Zfp810 (zinc finger protein 810) | 1 | 55 | 50.3 | inactive |
| Zfp810 (zinc finger protein 810) | 2 | 89.1 | 70.3 | inactive |
| Zfp810 (zinc finger protein 810) | 3 | 92 | 87.8 | inactive |
| Alms1 (ALMS1, centrosome and basal body associated) | 1 | 16 | 29.8 | inactive |
| Alms1 (ALMS1, centrosome and basal body associated) | 2 | 86.8 | 80.7 | inactive |
| Alms1 (ALMS1, centrosome and basal body associated) | 3 | 170 | 127 | active |
| Amd1 (S-adenosylmethionine decarboxylase 1) | 1 | 117 | 73.1 | inactive |
| Amd1 (S-adenosylmethionine decarboxylase 1) | 2 | 56.2 | 72.8 | inactive |
| Amd1 (S-adenosylmethionine decarboxylase 1) | 3 | 74.1 | 81.6 | inactive |
| Mall (mal, T cell differentiation protein-like) | 1 | 60.4 | 67.3 | inactive |
| Mall (mal, T cell differentiation protein-like) | 2 | 128 | 139 | active |
| Mall (mal, T cell differentiation protein-like) | 3 | 96.6 | 99.6 | inactive |
| Raver2 (ribonucleoprotein, PTB-binding 2) | 1 | 72.9 | 77.9 | inactive |
| Raver2 (ribonucleoprotein, PTB-binding 2) | 2 | 62.3 | 75.9 | inactive |
| Raver2 (ribonucleoprotein, PTB-binding 2) | 3 | 95.8 | 58.6 | inactive |
| Sars2 (seryl-aminoacyl-tRNA synthetase 2) | 1 | 73.7 | 75.4 | inactive |
| Sars2 (seryl-aminoacyl-tRNA synthetase 2) | 2 | 99.7 | 96.8 | inactive |
| Adam18 (a disintegrin and metallopeptidase domain 18) | 1 | 56.4 | 31.7 | inactive |
| Adam18 (a disintegrin and metallopeptidase domain 18) | 2 | 84.7 | 78.3 | inactive |
| Adam18 (a disintegrin and metallopeptidase domain 18) | 3 | 86.4 | 90.6 | inactive |
| Ptges (prostaglandin E synthase) | 1 | 65.9 | 69.7 | inactive |
| Ptges (prostaglandin E synthase) | 2 | 89 | 91.5 | inactive |
| Pde4d (phosphodiesterase 4D, cAMP specific) | 1 | 126 | 66.3 | active |
| Pde4d (phosphodiesterase 4D, cAMP specific) | 2 | 86.5 | 74.6 | inactive |
| Pde4d (phosphodiesterase 4D, cAMP specific) | 3 | 76.3 | 74 | inactive |
| Iapp (islet amyloid polypeptide) | 1 | 33.2 | 44.3 | inactive |
| Iapp (islet amyloid polypeptide) | 2 | 46.5 | 60.9 | inactive |
| Iapp (islet amyloid polypeptide) | 3 | 69 | 51 | inactive |
| Nr0b2 (nuclear receptor subfamily 0, group B, member 2) | 1 | 157 | 70 | active |
| Nr0b2 (nuclear receptor subfamily 0, group B, member 2) | 2 | 78.9 | 85.9 | inactive |
| Nr0b2 (nuclear receptor subfamily 0, group B, member 2) | 3 | 76.6 | 71.6 | inactive |
| Rpgr (retinitis pigmentosa GTPase regulator) | 1 | 108 | 122 | inactive |
| Rpgr (retinitis pigmentosa GTPase regulator) | 2 | 117 | 101 | inactive |
| Rpgr (retinitis pigmentosa GTPase regulator) | 3 | 111 | 77.6 | inactive |
| Or4f61 (olfactory receptor family 4 subfamily F member 61) | 1 | 162 | 65.2 | active |
| Or4f61 (olfactory receptor family 4 subfamily F member 61) | 2 | 90.6 | 61.9 | inactive |
| Or4f61 (olfactory receptor family 4 subfamily F member 61) | 3 | 47.6 | 79.8 | inactive |
| Ppl (periplakin) | 1 | 117 | 99.9 | inactive |
| Ppl (periplakin) | 2 | 95.1 | 73.4 | inactive |
| Ppl (periplakin) | 3 | 109 | 102 | inactive |
| Xrcc6 (X-ray repair cross complementing 6) | 1 | 78.9 | 79.8 | inactive |
| Xrcc6 (X-ray repair cross complementing 6) | 2 | 81.1 | 67.1 | inactive |
| Xrcc6 (X-ray repair cross complementing 6) | 3 | 85 | 85.3 | inactive |
| Zfp791 (zinc finger protein 791) | 1 | 81.1 | 64.9 | inactive |
| Zfp791 (zinc finger protein 791) | 2 | 97.7 | 113 | inactive |
| Zfp791 (zinc finger protein 791) | 3 | 42.7 | 85.6 | inactive |
| Prkci (protein kinase C, iota) | 1 | 72.3 | 62.2 | inactive |
| Prkci (protein kinase C, iota) | 2 | 68.1 | 80.5 | inactive |
| Prkci (protein kinase C, iota) | 3 | 90.2 | 78.3 | inactive |
| Omg (oligodendrocyte myelin glycoprotein) | 1 | 123 | 104 | active |
| Omg (oligodendrocyte myelin glycoprotein) | 2 | 93.8 | 89.4 | inactive |
| Omg (oligodendrocyte myelin glycoprotein) | 3 | 96.3 | 83.8 | inactive |

A stretch of the results above:
| gene knocked down | reagent no. | GFP, % of control | viability (ATP), % of control | call |
| --- | --- | --- | --- | --- |
| Plec (plectin) | 1 | 80.8 | 31.3 | inactive |
| Plec (plectin) | 2 | 49.6 | 58.1 | inactive |
| Plec (plectin) | 3 | 62.8 | 42.3 | inactive |
| Bpifc (BPI fold containing family C) | 1 | 135 | 121 | active |
| Bpifc (BPI fold containing family C) | 2 | 86.9 | 102 | inactive |
